{
  "sequences": {"note": "Amino acid sequences for entries named in this document (tags omitted).", "UniProt Q9Y463, whole entry, looked up": "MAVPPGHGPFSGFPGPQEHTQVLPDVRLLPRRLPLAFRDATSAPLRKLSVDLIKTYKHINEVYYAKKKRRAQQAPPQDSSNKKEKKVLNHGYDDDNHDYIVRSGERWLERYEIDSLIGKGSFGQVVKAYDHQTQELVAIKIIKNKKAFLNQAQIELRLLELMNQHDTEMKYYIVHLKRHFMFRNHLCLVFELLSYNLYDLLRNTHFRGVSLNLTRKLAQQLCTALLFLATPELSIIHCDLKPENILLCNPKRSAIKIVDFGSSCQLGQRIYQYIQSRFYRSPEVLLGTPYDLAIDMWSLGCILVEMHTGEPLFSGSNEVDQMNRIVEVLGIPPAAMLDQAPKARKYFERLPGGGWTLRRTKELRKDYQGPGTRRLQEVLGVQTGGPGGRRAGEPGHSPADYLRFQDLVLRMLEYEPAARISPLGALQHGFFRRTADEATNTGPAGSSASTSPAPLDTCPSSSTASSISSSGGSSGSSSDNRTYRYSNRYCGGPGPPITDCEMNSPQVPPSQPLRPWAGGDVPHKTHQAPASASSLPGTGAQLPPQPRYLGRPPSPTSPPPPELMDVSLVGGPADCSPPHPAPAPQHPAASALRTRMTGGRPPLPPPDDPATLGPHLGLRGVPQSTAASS"},
  "source": "the supplement of paper PMC12823440",
  "about": "“Inhibitors supercharge kinase turnover through native proteolytic circuits” (Nature, 2025)",
  "note": "Where a name gives a salt, the structure may show the parent alone. The list shows a part of the results. The calls rarely recur for the same compound in another form.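 In K562 cells expressing nanoluciferase-fused kinases, luminescence was recorded at 4 h intervals between 2 and 18 h, normalized as percent of control with DMSO at 100% and a positive control at 0%. A significant (2 sigma) signal drop marks a time point as decreased. The authors' rule for a hit is not shown and takes in more than the number of time points.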",
  "data": [
    {"target": "DYRK1B (UniProt Q9Y463)", "experiment": "number of time points (of 5) at which kinase-Nluc abundance scored as decreased, DMSO-normalised (count); higher = more persistent destabilization", "conditions": "K562; 2-18 h", "values": [
      {"smiles": "N#Cc1ccc2[nH]c(O)c(-c3ccc(CN4CCOCC4)cn3)c2c1", "note": "(10 µM)", "number of time points": 0},
      {"smiles": "CCN(CC)CCCCNc1ncc2cc(-c3cc(OC)cc(OC)c3)c(NC(=O)NC(C)(C)C)nc2n1", "note": "(10 µM)", "number of time points": 0},
      {"smiles": "Oc1ccc(-c2nc(-c3ccc(F)cc3)c(-c3ccncc3)[nH]2)cc1", "note": "(2.5 µM)", "number of time points": 0},
      {"smiles": "O=C1NCCc2[nH]c(-c3ccnc(-c4cnc5ccccc5c4)c3)cc21", "note": "(10 µM)", "number of time points": 0},
      {"smiles": "Cc1cc(N2CCOCC2)cc2[nH]c(-c3c(NC[C@@H](O)c4cccc(Cl)c4)cc[nH]c3=O)nc12", "note": "(10 µM)", "number of time points": 0},
      {"smiles": "COc1cc(OC)cc(-c2cc3cnc(N)nc3nc2NC(=O)NC(C)(C)C)c1", "note": "(10 µM)", "number of time points": 0},
      {"smiles": "Cc1ccc(NC(=O)Nc2nnc(Sc3ncnc4cc(OCCCN5CCOCC5)ccc34)s2)cc1", "note": "(10 µM)", "number of time points": 0},
      {"smiles": "N#C/C(=C\\c1ccc(O)c(O)c1)C(=O)NCCCc1ccccc1", "note": "(10 µM)", "number of time points": 0},
      {"smiles": "Cc1cccc([C@@H](CO)NC(=O)[C@@H](C)N2Cc3ccc(-c4nc(NC5CCOCC5)ncc4Cl)cc3C2=O)c1", "note": "[ERK1/2 inhibitor 1] (10 µM)", "number of time points": 0},
      {"smiles": "CCOc1ccn(-c2ccc(F)cc2)c(=O)c1C(=O)Nc1ccc(Oc2ccnc(N)c2Cl)c(F)c1", "note": "(10 µM)", "number of time points": 1},
      {"smiles": "O=c1cc(N2CCOCC2)oc2c(-c3ccccc3)cccc12", "note": "(10 µM)", "number of time points": 0},
      {"smiles": "O=c1oc2c(O)c(O)cc3c(=O)oc4c(O)c(O)cc1c4c23", "note": "[Ellagic acid] (10 µM)", "number of time points": 0},
      {"smiles": "C=CC(=O)Nc1ccc2ncnc(Nc3cccc(Br)c3)c2c1", "note": "(10 µM)", "number of time points": 4},
      {"smiles": "Cc1c(Cn2c(C)nc3c(C(=O)O)cc(N4CCOCC4)cc32)cccc1C(F)(F)F", "note": "(10 µM)", "number of time points": 0},
      {"smiles": "Cc1c[nH]c2nccc(Oc3c(F)cc(Nc4cc(Cl)nc(N)n4)cc3F)c12", "note": "(10 µM)", "number of time points": 0},
      {"smiles": "CC(C)CC(=O)Nc1n[nH]c2c1CN(C(=O)C1CCN(C)CC1)C2(C)C", "note": "(2.5 µM)", "number of time points": 0},
      {"smiles": "CCN(CCO)CCCOc1ccc2c(Nc3cc(CC(=O)Nc4cccc(F)c4)[nH]n3)ncnc2c1", "note": "[Barasertib-HQPA] (10 µM)", "number of time points": 0},
      {"smiles": "N#C/C(=C\\c1ccc(O)c(O)c1)C(=O)NCc1ccccc1", "note": "(10 µM)", "number of time points": 0},
      {"smiles": "COc1nccc(-c2c(-c3ccc(F)cc3)ncn2C2CCC(O)CC2)n1", "note": "(centres undefined) (10 µM)", "number of time points": 0},
      {"smiles": "O=c1c(-c2ccc(O)cc2)coc2cc(O)cc(O)c12", "note": "[Genistein] (10 µM)", "number of time points": 0},
      {"smiles": "CCOc1cc2ncc(C#N)c(Nc3ccc(OCc4ccccn4)c(Cl)c3)c2cc1NC(=O)/C=C/CN(C)C", "note": "[Neratinib] (10 µM)", "number of time points": 0},
      {"smiles": "CN1CCC(Nc2ncc3ncnc(Nc4ccc(F)c(Cl)c4)c3n2)CC1", "note": "[Falnidamol] (10 µM)", "number of time points": 0},
      {"smiles": "O=c1c(O)c(-c2ccc(O)c(O)c2)oc2cc(O)cc(O)c12", "note": "[Quercetin (dihydrate)] (10 µM)", "number of time points": 0},
      {"smiles": "COc1ccc(C=C(C#N)c2cccnc2)cc1OC", "note": "(10 µM)", "number of time points": 0},
      {"smiles": "Nc1ncnc2c1c(-c1ccc(Oc3ccccc3)cc1)cn2C1CCCC1", "note": "(2.5 µM)", "number of time points": 0},
      {"smiles": "COc1cc2nc(C)nc(N[C@H](C)c3cc(N)cc(C(F)(F)F)c3)c2cc1O[C@H]1CCOC1", "note": "(10 µM)", "number of time points": 0},
      {"smiles": "N#CC(=Cc1ccc(O)c(O)c1)C(=O)NCc1ccccc1", "note": "(mixture of isomers) (10 µM)", "number of time points": 0},
      {"smiles": "O=C1Cc2c([nH]c3ccc(Br)cc23)-c2ncccc2N1", "note": "[1-Azakenpaullone] (10 µM)", "number of time points": 0},
      {"smiles": "COc1cc2c(Nc3ccc(Br)cc3F)ncnc2cc1OCCn1ccnn1", "note": "(10 µM)", "number of time points": 0},
      {"smiles": "CNc1nc(-c2ccc3c(N)n[nH]c3c2)cc(N2C[C@@H](C(=O)NC3CCCCC3)CC[C@H]2C)n1", "note": "(10 µM)", "number of time points": 0},
      {"smiles": "Cc1cc(F)c(C(=O)Nc2cccc(-c3nncn3C(C)C)n2)cc1-n1cnc(C2CC2)c1", "note": "[Selonsertib] (10 µM)", "number of time points": 0},
      {"smiles": "COc1cc(C)c(Sc2cnc(NC(=O)c3ccc(CNC(C)C(C)(C)C)cc3)s2)cc1C(=O)N1CCN(C(C)=O)CC1", "note": "(centres undefined) (2.5 µM)", "number of time points": 0},
      {"smiles": "CCN(CC)CCCCNc1ncc2cc(-c3c(Cl)cccc3Cl)c(NC(=O)NC(C)(C)C)nc2n1", "note": "(2.5 µM)", "number of time points": 0},
      {"smiles": "COc1cc(C=C(C#N)C(N)=O)cc(CSc2nc3ccccc3s2)c1O", "note": "(10 µM)", "number of time points": 0},
      {"smiles": "C[C@]1(O)C[C@@H](c2nc(-c3ccc4ccc(-c5ccccc5)nc4c3)c3c(N)nccn32)C1", "note": "[Linsitinib] (2.5 µM)", "number of time points": 0},
      {"smiles": "CCN1CCN(c2ccc(Nc3cc(N(C)C(=O)Nc4c(Cl)c(OC)cc(OC)c4Cl)ncn3)cc2)CC1", "note": "[Infigratinib] (10 µM)", "number of time points": 0},
      {"smiles": "COc1c(CC=C(C)C)c(O)cc2oc(=O)c(-c3ccc(O)cc3O)cc12", "note": "[Glycycoumarin] (10 µM)", "number of time points": 0},
      {"smiles": "Cc1cc(C(=O)Nc2cccc(C(=O)Nc3cccc(C(F)(F)F)c3)c2)on1", "note": "(10 µM)", "number of time points": 0},
      {"smiles": "Cn1c(=O)c(Oc2ccc(F)cc2F)cc2cnc(NC3CCOCC3)nc21", "note": "[R1487 (Hydrochloride)] (10 µM)", "number of time points": 0}
    ]}
  ]
}
